This note sets out measurements from article PMC12627471.

The chains behind the UniProt entries cited, without tags or fusion partners.
UniProt P14618: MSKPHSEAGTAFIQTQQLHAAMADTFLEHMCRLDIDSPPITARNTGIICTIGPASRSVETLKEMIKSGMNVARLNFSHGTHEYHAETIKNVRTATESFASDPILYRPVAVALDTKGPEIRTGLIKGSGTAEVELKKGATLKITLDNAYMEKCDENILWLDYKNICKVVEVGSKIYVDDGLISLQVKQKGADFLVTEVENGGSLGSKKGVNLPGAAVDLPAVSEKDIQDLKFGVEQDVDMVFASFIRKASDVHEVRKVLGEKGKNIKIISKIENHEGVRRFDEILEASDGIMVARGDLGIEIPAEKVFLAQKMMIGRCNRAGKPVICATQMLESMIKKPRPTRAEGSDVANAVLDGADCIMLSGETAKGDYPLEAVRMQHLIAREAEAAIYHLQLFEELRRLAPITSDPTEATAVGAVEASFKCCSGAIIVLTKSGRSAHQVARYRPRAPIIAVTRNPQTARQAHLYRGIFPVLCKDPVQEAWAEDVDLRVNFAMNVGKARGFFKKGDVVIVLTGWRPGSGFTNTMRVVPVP

These are yes or no findings as the source states them, for the method shown. Binding seen in cells or lysates may run through a third protein. A yes stands for co-enrichment or nearness to the bait. Other partners may have been found.

This experiment deals with T1, Transketolase (TKT) (human) (UniProt P29401).
T1 sequence: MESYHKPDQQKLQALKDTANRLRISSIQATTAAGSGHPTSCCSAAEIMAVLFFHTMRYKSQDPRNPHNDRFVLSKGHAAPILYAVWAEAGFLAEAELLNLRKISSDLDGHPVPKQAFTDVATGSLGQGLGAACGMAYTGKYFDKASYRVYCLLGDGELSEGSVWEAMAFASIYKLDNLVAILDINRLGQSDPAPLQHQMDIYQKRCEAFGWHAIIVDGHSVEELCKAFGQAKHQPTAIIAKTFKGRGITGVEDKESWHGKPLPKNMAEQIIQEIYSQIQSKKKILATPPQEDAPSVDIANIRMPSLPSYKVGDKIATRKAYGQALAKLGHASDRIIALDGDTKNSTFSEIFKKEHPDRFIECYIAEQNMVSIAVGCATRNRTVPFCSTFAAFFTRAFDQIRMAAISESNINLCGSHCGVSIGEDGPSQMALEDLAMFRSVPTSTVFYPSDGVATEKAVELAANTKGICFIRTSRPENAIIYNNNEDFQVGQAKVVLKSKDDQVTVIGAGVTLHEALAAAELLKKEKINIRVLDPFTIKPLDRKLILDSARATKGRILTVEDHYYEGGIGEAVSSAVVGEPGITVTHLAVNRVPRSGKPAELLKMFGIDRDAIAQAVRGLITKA
In words: affinity purification with mass spectrometry; immunoprecipitation-mass spectrometry of TKT-binding proteins in RCC cells; cell line and antibody not stated.

For “Pyruvate kinase M2 (PKM2) (from UniProt P14618 1-531) (enzyme)”, the binding entry is “binds”.
